Some of these results come from one statement about several compounds together.
Tested on: CAMA-1 cell line
Assay: CAMA-1 cell proliferation, CellTiter-Glo Luminescent Cell Viability Assay, dose matrix analysed with Chalice Analyzer
Type: cell-based
Conditions: standard media, 72 hrs, FIG. 2A

SMILES: CN1CCN(c2ccc3nc(-c4c(N)c5c(F)cccc5[nH]c4=O)[nH]c3c2)CC1 [Compound B, 4-amino-5-fluoro-3-[6-(4-methylpiperazin-1-yl)-1H-benzimidazol-2-yl]quinolin-2(1H)-one]
- concentrations with a modest effect on proliferation as a single agent: ≥ 1.3 µM
